Measurements reported in PubChem BioAssay AID1487 (National Center for Advancing Translational Sciences (NCATS), 2009).
The other results are listed elsewhere or left out. These are further read-outs of the screen, such as a control signal, another cell line or another target. No call is given for them. Compounds called inactive in the main read-out are mostly missing here. The note in brackets gives the kind of curve behind each potency; many fits are weak.

Assay: qHTS Assay for Modulators of Lamin A Splicing
Details: HeLa LMNA splicing GFP/RFP minigene ratio, 48 h
Procedure, shortened: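 Read-out is the ratio of GFP to DsRed2 object intensity, acquired by 488 nm laser-scanning cytometry on HeLa lamin A-EGFP minigene reporter cells. Compound incubation 48 hrs at 37 °C in Opti-MEM with 2% FBS; DMSO 0.5% final.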

[1] = measured here: RFP viability control channel
[2] = measured here: GFP splicing reporter channel

Row | SMILES | AC50 [1] | AC50 [2]
1 | O=C1C2CC=CCC2C(=O)N1c1ccc(Cc2ccncc2)cc1 (centres undefined) | 6.31 µM [rising, full curve, poor fit] | 
2 | COc1ccccc1N1CCN(C(=O)COc2ccc(Cl)cc2)CC1 | 35.5 µM [rising, single point] | 
3 | Cc1ccc2nc(NC(=O)CSc3nc4ccccc4o3)sc2c1 | 11.2 µM [rising, single point] | 
4 | Cc1cc(OC(=O)c2c(Cl)cc(Cl)cc2Cl)nc(C)n1 | 3.98 µM [rising, partial curve] | 
5 | CCOc1ccc2nc(NC(=O)CSC3=NCCS3)sc2c1 | 20 µM [rising, single point] | 15.8 µM [rising, partial curve]
6 | Cc1cc(C)nc(/N=C(\N)Nc2ccccc2-c2ccccc2)n1 |  | 6.31 µM [falling, full curve, poor fit]
7 | COCCNC(=O)CCc1c(C)nc2nc(-c3cc(OC)cc(OC)c3)nn2c1C | 6.31 µM [rising, single point] | 
8 | CCCc1oc2ccc(NS(=O)(=O)c3ccc(OC)cc3)cc2c1C(=O)OCC |  | 35.5 µM [falling, single point]
9 | O=C(CCCCCN1C(=O)CCC1=O)Nc1ccc(Cl)c(C(F)(F)F)c1 | 35.5 µM [rising, single point] | 
10 | Cc1ccc(C(NC(=O)N2CCCCC2)=C(Cl)Cl)cc1F | 5.62 µM [rising, partial curve] | 
11 | CCOc1ccccc1CNC(=O)c1cccc(NC(=O)c2nsc3ccccc23)c1 | 0.447 µM [rising, full curve, poor fit] | 0.398 µM [rising, full curve, poor fit]
12 | Cc1nc(SCC(=O)N2CCN(c3ccccc3)CC2)c2oc3ccccc3c2n1 | 14.1 µM [rising, partial curve] | 
13 | CCCN(C(=O)CCn1cnc2onc(-c3ccc(F)cc3)c2c1=O)c1ccccc1C | 31.6 µM [rising, single point] | 
14 | COc1cc(C(=O)Nc2nnc(CC(C)(C)C)s2)c([N+](=O)[O-])cc1OC | 17.8 µM [rising, single point] | 17.8 µM [rising, single point]
15 | COc1ccc2cc3c(N)nn(C(=O)C4CCC(C(C)(C)C)CC4)c3nc2c1 (centres undefined) | 10 µM [rising, partial curve] | 
16 | CN(C(=S)NCCN1CCOCC1)C(c1ccccc1)c1ccccc1 | 0.00501 µM [rising, full curve, poor fit] | 
17 | CC1(CCc2ccccc2)NC(=O)N(Cc2nnc(-c3ccccc3Br)o2)C1=O (centres undefined) | 35.5 µM [rising, single point] | 
18 | Cc1ccccc1OCCC(=O)Nc1ccc(F)c(Cl)c1 | 4.47 µM [rising, single point] | 
19 | N#Cc1ccccc1NC(=O)C(=O)NCC(c1cccnc1)N1CCc2ccccc2C1 (centres undefined) | 0.0282 µM [rising, full curve, poor fit] | 0.0316 µM [rising, full curve]
20 | O=C(NC1(C(F)(F)F)Oc2ccccc2O1)N1CCCC1 |  | 35.5 µM [falling, single point]

Shown with each value named: two of the compounds above.
Cc1nc(SCC(=O)N2CCN(c3ccccc3)CC2)c2oc3ccccc3c2n1
  AC50 [1]: 14.1 µM [rising, partial curve]
CN(C(=S)NCCN1CCOCC1)C(c1ccccc1)c1ccccc1
  AC50 [1]: 0.00501 µM [rising, full curve, poor fit]

(further entries)

Row | SMILES | AC50 [1] | AC50 [2]
21 | CCCCN(C)c1ncnc2c1cnn2-c1cccc(Cl)c1 |  | 31.6 µM [falling, partial curve]
22 | COc1ccccc1CNc1ncnc2nc[nH]c12 |  | 0.891 µM [rising, full curve, poor fit]
23 | CCOc1ccccc1NC(=O)C1CCCN(S(=O)(=O)c2ccc3c(c2)CCCN3C(C)=O)C1 (centres undefined) | 0.02 µM [falling, full curve, poor fit] | 
24 | CCOC(=O)C1=C(c2ccc(OC)cc2)C(=O)c2ccccc2C1=O | 35.5 µM [falling, single point] | 
25 | Cc1cc(NC(=O)COC(=O)c2oc3c(ccc4ccccc43)c2C)no1 | 0.141 µM [rising, full curve, poor fit] | 0.158 µM [rising, full curve, poor fit]
26 | Cc1cc(C(=O)CSc2nc3ccccc3c(=O)n2C)c(C)n1CC1CCCO1 (centres undefined) | 0.316 µM [rising, full curve, poor fit] | 
27 | Cc1cc(SCC(=O)NCc2ccccc2)nc(=O)[nH]1 | 15.8 µM [rising, partial curve] | 0.0112 µM [rising, full curve, poor fit]
28 | Cc1ccc(C(=O)Nc2ccc([N+](=O)[O-])cn2)o1 | 0.251 µM [rising, full curve, poor fit] | 2.51 µM [rising, partial curve, poor fit]
29 | C/C(=N\Nc1ncc(Cl)cc1Cl)c1ccccn1 | 20 µM [rising, partial curve] | 
30 | O=C(NNC(=O)c1ccc2ccccc2c1O)c1ccccc1Cl | 25.1 µM [rising, single point] | 
31 | CCOC(=O)CSc1nc(N2CCOCC2)c2c(c1C#N)CC(C)(C)N(C)C2 | 3.16 µM [rising, partial curve] | 
32 | COc1ccc(-c2csc3nc(-c4cccnc4)nc(Cl)c23)cc1OC |  | 0.00708 µM [falling, full curve, poor fit]
33 | Cc1cccc(-c2cc(NC(=O)COc3ccccc3F)n(-c3ccccc3)n2)c1 | 5.62 µM [rising, single point] | 5.62 µM [rising, single point]
34 | O=C(CCc1ccccc1)Nc1ccccc1C(=O)N1CCOCC1 | 0.1 µM [falling, full curve] | 
35 | COc1ccc(S(=O)(=O)n2nc(OC(=O)c3c(-c4ccccc4Cl)noc3C)cc2N)cc1 | 22.4 µM [falling, single point] | 14.1 µM [falling, partial curve]
36 | CCC(C)c1ccc(O)c(NC(=O)c2cncc(Br)c2)c1 (centres undefined) | 7.08 µM [rising, partial curve, poor fit] | 
37 | COc1cccc(OC)c1C(=O)Nn1c(-c2cccs2)nc2ccccc2c1=O | 5.62 µM [rising, partial curve, poor fit] | 5.01 µM [rising, full curve, poor fit]
38 | C=CCOc1ccc(CN(C)Cc2nc3cc(C(F)(F)F)ccc3c(=O)[nH]2)cc1 | 6.31 µM [falling, partial curve, poor fit] | 
39 | COc1cccc(/C=C/C(=O)Nc2ccc(OC)nc2)c1 | 35.5 µM [rising, single point] | 
40 | O=C(N/N=C/c1cc([N+](=O)[O-])cc([N+](=O)[O-])c1O)/C(=C\c1cccs1)NC(=O)c1ccccc1 | 6.31 µM [rising, partial curve] | 

Some of these compounds in order of molar mass, low to high:
Row | SMILES | AC50 [1] | AC50 [2]
36 | CCC(C)c1ccc(O)c(NC(=O)c2cncc(Br)c2)c1 (centres undefined) | 7.08 µM [rising, partial curve, poor fit] | 
14 | COc1cc(C(=O)Nc2nnc(CC(C)(C)C)s2)c([N+](=O)[O-])cc1OC | 17.8 µM [rising, single point] | 17.8 µM [rising, single point]
7 | COCCNC(=O)CCc1c(C)nc2nc(-c3cc(OC)cc(OC)c3)nn2c1C | 6.31 µM [rising, single point] | 

The results go on:

Row | SMILES | AC50 [1] | AC50 [2]
41 | Nc1c2c3c(sc2nc(=O)n1N)CCCC3 |  | 35.5 µM [falling, single point]
42 | COc1cccc(NC(=S)NNC(=O)c2c([N+](=O)[O-])c(C)nn2C)c1 | 35.5 µM [falling, single point] | 25.1 µM [falling, partial curve, poor fit]
43 | Cc1ccc(/C=C2/Sc3ccccc3N(CC(=O)NCCCOC(C)C)C2=O)cc1 | 35.5 µM [rising, single point] | 
44 | O=C(c1ccc(Br)s1)N1CCN(C/C=C/c2ccccc2)CC1 | 35.5 µM [rising, single point] | 
45 | CCS(=O)(=O)c1ncc(N(Cc2ccco2)Cc2sccc2C)c(C(=O)Nc2cc(C)ccc2C)n1 | 4.47 µM [falling, single point] | 3.16 µM [falling, single point]
46 | O=C(Nc1ccccc1Oc1ccccc1)c1cc([N+](=O)[O-])ccc1Cl | 35.5 µM [rising, single point] | 
47 | CCOC(=O)c1ccc(NC(=O)Nc2ccc3c(c2)OCCO3)cc1 | 35.5 µM [rising, single point] | 
48 | COc1ccc(C(=O)NCCc2sc(-c3cccc(F)c3)nc2C)cc1 | 0.126 µM [falling, full curve, poor fit] | 0.141 µM [falling, full curve, poor fit]
49 | COc1cccc(-c2nnc(N(C)C(=O)c3ccno3)s2)c1 | 0.891 µM [falling, partial curve] | 
50 | C[C@@H](N)C1CCC(C(=O)Nc2ccncc2)CC1 (some centres undefined) | 6.31 µM [falling, partial curve, poor fit] | 0.0224 µM [rising, full curve, poor fit]
51 | COc1cc(/C=C/c2ccc(O)cc2)cc(OC)c1 | 31.6 µM [rising, single point] | 3.55 µM [falling, partial curve, poor fit]
52 | CCOC(=O)c1ncn2c1CN(C)C(=O)c1cc(F)ccc1-2 |  | 100 µM [falling, partial curve, poor fit]
53 | CC1CCc2nc(NC(=O)COc3ccc(C(C)(C)C)cc3)sc2C1 (centres undefined) |  | 5.62 µM [falling, full curve]
54 | COc1ccc(CN2CCCC(C(=O)N(C)Cc3ccccc3)C2)cc1OC (centres undefined) | 0.316 µM [rising, full curve, poor fit] | 
55 | O=C(N/N=C/c1ccc(Br)s1)c1cccc([N+](=O)[O-])c1 | 2.24 µM [rising, full curve, poor fit] | 
56 | COc1cc(OC)cc(C(=O)N2c3ccc(F)cc3CCC2C)c1 (centres undefined) | 0.251 µM [rising, full curve, poor fit] | 
57 | Cc1ccc(NC(=S)N(CCCN2CCOCC2)Cc2ccccn2)cc1 | 0.0158 µM [rising, full curve, poor fit] | 
58 | Cc1nc(CC(=O)c2c(C)cc(O)cc2O)cs1 | 4.47 µM [rising, full curve] | 0.126 µM [rising, full curve, poor fit]
